Measurements reported in patent US9321772B2, “Substituted pyrazolo[3,4-D]pyrimidines and uses thereof” (The Regents of the University of California, priority 2011, dated 2016).
At least one structure is not confirmed: it was looked up by name or label, or the drawing left a doubt. Some entries share one result that the patent states for a list of compounds. Some compounds share one range, which may span the group rather than tell each member.

Experiments:
[1] = test system: ptc>dRet^MEN2B wing cells; assay: Wing-based assay for transformation and cell migration (ptc>dRetMEN2B); assay type: in vivo, Drosophila; conditions: oral administration
Excerpt: FIG. 4E. Quantification of ptc>dRet^MEN2B phenotypes. Invasion was established by scoring for single/groups of GFP-labeled cells that relocated away from the ptc boundary (FIG. 4C, asterisks). Basal migration was scored as indentation of the apical surface (see FIG. 2B, arrows). Proliferation was scored as significant widening of the ptc boundary. The number of wings analyzed under each condition is indicated in brackets.
We previously developed a wing-based assay for transformation and cell migration that we utilized to explore Ras- and Src-based tumorigenesis (Vidal, M., D. E. Larson, and R. L. Cagan, Dev Cell, 2006. 10(1): p. 33-44). In this assay, the ptc-GAL4 driver directed oncogene expression in a stripe along the anterior-posterior axis; oncogene-based transformation led to over-proliferation, epithelial-to-mesenchymal transition (EMT), and cell migration away from the ptc domain.

[2] = test system: 765>dRet^MEN2B wings (Ras/Erk pathway activity); assay: Adult wing vein pattern assay (765>dRetMEN2B); assay type: in vivo, Drosophila; conditions: drug fed flies
Excerpt: The adult Drosophila wing consists of a stereotypical pattern of […] and two cross-veins; increased Ras/Erk pathway activity leads to ectopic veins (e.g., Refs. (Sawamoto, K. et al., Dev Biol, 1996. 178(1): p. 13-22; Guichard, A. et al., Development, 1999. 126(12): p. 2663-76)). Expression of oncogenic dRet throughout the developing wing (765>dRet^MEN2B) led to disruption of the overall adult wing pattern including ectopic wing veins (FIG. 3D). Reducing gene dosage of the erk ortholog rolled (765>dRet^MEN2B erk−/+) suppressed these phenotypes (FIG. 3D), confirming that wing vein formation is dependent on Ras/Erk activity.

ptc>dRet^MEN2B flies = assay: Drosophila ptc>dRetMEN2B viability assay; assay type: in vivo; conditions: oral administration, drug mixed into food
Excerpt: FIG. 1A. Suppression of Ret^MEN2B-induced developmental block and whole animal toxicity were scored based on number of embryos (n) that survived as pupae (x) and adults (y). Drugs were mixed into food and fed to flies starting at larval stages.
FIG. 1B. Percent viability of control or drug treated flies determined for pupae (x/n) and adults (y/n).
Described herein is a Drosophila MEN2B model in which an intracellular mutation in the Drosophila Ret ortholog (dRet) was targeted to the eye (Read, R. D. et al., Genetics, 2005. 171(3): p. 1057-81). […] The screen is conducted in developing drosophila embryos. Under normal circumstances, drosophila embryos pass through four developmental steps: embryo→larvae→pupae→adult. […] We calibrated the ptc>dRetMEN2B assay to permit 50% survival to pupariation and 0% survival to adulthood. Mutated forms of RET are believed to be causative in human thyroid cancers including multiple endocrine neoplasia types 2A and 2B (MEN2A and MEN2B). The screen identifies small molecules that (a) suppress the toxicity induced by oncogenic RET and (b) allow flies to develop to functional adults. […] 64(19): p. 7099-109; Sun, L. et al., J Med Chem, 2003. 46(7): p.

TPC1 cells (CCDC6-RET) = assay: CellTiterGlo-based proliferation assay in TPC1 cells; assay type: cell-based, human; conditions: 96 h treatment, ATP content

COc1cc2c(Nc3ccc(Br)cc3F)ncnc2cc1OCC1CCN(C)CC1 [Vandetanib, reference compound]
suppression of dRetMEN2B-induced proliferation, EMT, invasion/basal migration [1]: limited ability to significantly rescue the transformation phenotype and not | ectopic wing vein / wing pattern phenotype [2]: had little effect

CC(C)n1nc(-c2ccc(NC(=O)Nc3cc(C(F)(F)F)ccc3F)cc2)c2c(N)ncnc21 [AD80]
animals rescued / developing to adulthood (ptc>dRet^MEN2B flies): 70-90% | IC50 (TPC1 cells (CCDC6-RET)): 0.1 to 0.5 µM

CCN(CC)CCNC(=O)c1c(C)[nH]c(/C=C2\C(=O)Nc3ccc(F)cc32)c1C [Sunitinib, reference compound]
rescue of ptc>dRetMEN2B viability (pupae, adults), in words (ptc>dRet^MEN2B flies): mild | suppression of dRetMEN2B-induced proliferation, EMT, invasion/basal migration [1]: limited ability to significantly rescue the transformation phenotype

CC(C)n1nc(-c2ccc(NC(=O)Nc3ccc(Cl)c(C(F)(F)F)c3)cc2)c2c(N)ncnc21 [AD81]
animals rescued / developing to adulthood (ptc>dRet^MEN2B flies): 70-90% | IC50 (TPC1 cells (CCDC6-RET)): 0.1 to 0.5 µM

CC(C)n1nc(-c2ccc(NC(=O)Nc3cccc(C(F)(F)F)c3)cc2)c2c(N)ncnc21 [AD57]
IC50 (TPC1 cells (CCDC6-RET)): 0.1 to 0.5 µM
